Assay [1] relates to mIMCD3. Nature of the assay: robust z score of cell number vs plate controls; higher = more cells (less cytotoxic). The settings on record: 10 µM, 48 h.
The test system of assay [2] is mIMCD3. Nature of the assay: robust z score of cilia incidence (% cells with single cilium) vs plate controls; higher = more ciliated cells. The settings on record: 10 µM; 48 h; siRNA: siScr.
Assay [3] relates to mIMCD3. Nature of the assay: robust z score of cilia incidence (% cells with single cilium) vs plate controls; higher = more ciliated cells (rescue of cilia loss). Conditions: 10 µM; 48 h; siRNA: siRpgrip1l.

Counter-ions that a name gives are not always drawn. ± gives the standard deviation of the averaged measurements. The list shows a part of the results. Part of the spread comes from offsets between plates or batches.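 The cells are a mouse kidney inner medullary collecting duct line, silenced either for the ciliary gene Rpgrip1l or with a non-targeting control siRNA.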

For the compound `Cn1cnc2c(NCc3ccccc3)nc(NCCO)nc21` [Olomoucine], the “robust z score of cell number” value in assay [1] (siRNA: siRpgrip1l) was -33.7 ± 37; in assay [1] (siRNA: siScr), 0.222 ± 2. Besides, the “robust z score of cilia incidence” value in assay [2] was 1.6 ± 1.3; in assay [3] it was -9.2 ± 2.6.

For the compound `C[C@@H](N)[C@H]1CC[C@H](C(=O)Nc2ccncc2)CC1`, the entries for the “robust z score of cell number” value in assay [1] (siRNA: siRpgrip1l) and in assay [1] (siRNA: siScr) were -13.7 ± 5.2 and -22.3 ± 31, respectively. For the same compound, the “robust z score of cilia incidence” value in assay [2] was -8.2 ± 7.1; in assay [3], -6.99 ± 6.8.

In the case of `CC(=O)Nc1ccc(O)cc1` [Acetaminophen], the “robust z score of cell number” value in assay [1] (siRNA: siRpgrip1l) was -1.63 ± 1.9; in assay [1] (siRNA: siScr) it was -3.16 ± 1.2. Moreover, the “robust z score of cilia incidence” value in assay [2] was -0.845 ± 1; in assay [3], -20.3 ± 17.

For the compound `NS(=O)(=O)C#Cc1ccccc1` [Pifithrin->m], the “robust z score of cell number” value in assay [1] (siRNA: siRpgrip1l) is -32.9 ± 10; in assay [1] (siRNA: siScr) it was -144 ± 110. Further, the results for the “robust z score of cilia incidence” value in assay [2] and in assay [3] were -56.1 ± 24 and -52.3 ± 17, respectively.

Take `N#C/C(=C\c1ccc(O)c(O)c1)C(=O)OCCc1cccs1`: the results for the “robust z score of cell number” value in assay [1] (siRNA: siRpgrip1l) and in assay [1] (siRNA: siScr) were -56.2 ± 56 and -28 ± 22, respectively. The “robust z score of cilia incidence” value is -15.3 ± 11 in assay [2] and -24.1 ± 14 in assay [3].

As for `C[C@](N)(Cc1ccc(O)c(O)c1)C(=O)O` [L-(-)- α-Methyldopa], the entries for the “robust z score of cell number” value in assay [1] (siRNA: siRpgrip1l) and in assay [1] (siRNA: siScr) were -4.62 ± 3.6 and 2.75 ± 3.7, respectively. Further, the “robust z score of cilia incidence” value is 1.2 ± 0.56 in assay [2] and -4.77 ± 8.2 in assay [3].

Consider `CN1CCC(Nc2ncc3ncnc(Nc4ccc(F)c(Cl)c4)c3n2)CC1` [BIBX 1382 dihydrochloride], for which the “robust z score of cell number” value is -20.6 ± 9.8 in assay [1] (siRNA: siRpgrip1l) and -16.1 ± 0.92 in assay [1] (siRNA: siScr). Besides, the “robust z score of cilia incidence” value was -17.5 ± 12 in assay [2] and -23.1 ± 13 in assay [3].

As for `CC1c2ccccc2CN1CC1=NCCN1` (stereo not drawn), the “robust z score of cell number” value in assay [1] (siRNA: siRpgrip1l) is -11.5 ± 8.8; in assay [1] (siRNA: siScr), -7.36 ± 0.65. Also, the “robust z score of cilia incidence” value is -0.444 ± 0.14 in assay [2] and -15.6 ± 0.7 in assay [3].

For `CCCN(CC1CC1)c1nc(C)nc(Nc2c(Cl)cc(Cl)cc2Cl)c1Cl`, the “robust z score of cell number” value is -189 ± 210 in assay [1] (siRNA: siRpgrip1l) and -44.3 ± 10 in assay [1] (siRNA: siScr). Besides, the “robust z score of cilia incidence” value in assay [2] was -23.9 ± 12; in assay [3], -465 ± 350.

Turning to `CNC(=C[N+](=O)[O-])NCCSCc1ccc(CN(C)C)o1` [Ranitidine hydrochloride], the “robust z score of cell number” value in assay [1] (siRNA: siRpgrip1l) amounted to 4.13 ± 8.7; in assay [1] (siRNA: siScr) it was 2.41 ± 4.4. Moreover, the “robust z score of cilia incidence” value in assay [2] was -3.86 ± 0.91; in assay [3], -28.2 ± 23.

On to `CCCCCCCCc1ccc(-c2ccc(C(=O)O)cc2)cc1`, for which the “robust z score of cell number” value was -18 ± 9.2 in assay [1] (siRNA: siRpgrip1l) and -18.2 ± 0.63 in assay [1] (siRNA: siScr). The “robust z score of cilia incidence” value in assay [2] was -16.2 ± 16; in assay [3], -26 ± 16.

Consider `O=C(c1ccc(OCCN2CCCCC2)cc1)c1c(-c2ccc(O)cc2)sc2cc(O)ccc12` [Raloxifene hydrochloride], for which the “robust z score of cell number” value is -29.9 ± 15 in assay [1] (siRNA: siRpgrip1l) and -27.6 ± 4.8 in assay [1] (siRNA: siScr). Further, the “robust z score of cilia incidence” value in assay [2] is -48.1 ± 47; in assay [3], -27.5 ± 7.4.

As for `CN1C(C(=O)Nc2ccccn2)=C(O)c2ccccc2S1(=O)=O` [Piroxicam], the “robust z score of cell number” value in assay [1] (siRNA: siRpgrip1l) was -3.17 ± 0.47; in assay [1] (siRNA: siScr), -5.08 ± 0.56. The “robust z score of cilia incidence” value in assay [2] is 5.13 ± 4.7; in assay [3], -8.03 ± 2.2.

`COCCOC(=O)C1=C(C)NC(C)=C(C(=O)OC/C=C/c2ccccc2)C1c1cccc([N+](=O)[O-])c1` (stereo not drawn) [Cilnidipine]: the “robust z score of cell number” value in assay [1] (siRNA: siRpgrip1l) is -29.7 ± 12; in assay [1] (siRNA: siScr) it was -129 ± 100. Also, the figures for the “robust z score of cilia incidence” value in assay [2] and in assay [3] were -19.8 ± 0.62 and -29.1 ± 1.3, respectively.

As to `CC(C)NCC(O)COc1ccc(COCCOC(C)C)cc1` (racemic) [(±)-Bisoprolol hemifumarate], the figures for the “robust z score of cell number” value in assay [1] (siRNA: siRpgrip1l) and in assay [1] (siRNA: siScr) were -2.08 ± 0.48 and -6.13 ± 6.4, respectively. In addition, the “robust z score of cilia incidence” value was -5.33 ± 7.3 in assay [2] and -8.12 ± 2.5 in assay [3].

For `C=C1C(=O)O[C@H]2[C@H]1CC/C(C)=C/CC[C@@]1(C)O[C@@H]21` [Parthenolide], the figures for the “robust z score of cell number” value in assay [1] (siRNA: siRpgrip1l) and in assay [1] (siRNA: siScr) were -20.1 ± 14 and -21.5 ± 18, respectively. The “robust z score of cilia incidence” value was 2.26 ± 0.27 in assay [2] and -8.14 ± 1.4 in assay [3].

With `CC(NC(=O)c1ccccc1/N=C/c1c(O)ccc2ccccc12)c1ccccc1` (stereo not drawn) [Sirtinol], the “robust z score of cell number” value in assay [1] (siRNA: siRpgrip1l) was -23.5 ± 26; in assay [1] (siRNA: siScr), -4.89 ± 0.29. Moreover, the “robust z score of cilia incidence” value was -7.22 ± 12 in assay [2] and -7.97 ± 4 in assay [3].

Consider `NCCCCNCCCN` [Spermidine trihydrochloride], for which the “robust z score of cell number” value in assay [1] (siRNA: siRpgrip1l) was -5.58 ± 0.2; in assay [1] (siRNA: siScr), -3.05 ± 3.2. Also, the “robust z score of cilia incidence” value in assay [2] is -4.52 ± 4.1; in assay [3], -10.6 ± 2.

As to `c1ccc(CN2CCC3(CCc4ccccc43)CC2)cc1` [L-693,403 maleate], the “robust z score of cell number” value in assay [1] (siRNA: siRpgrip1l) was -82 ± 73; in assay [1] (siRNA: siScr), -58.6 ± 18. Also, the “robust z score of cilia incidence” value was -33.3 ± 1.1 in assay [2] and -44.7 ± 24 in assay [3].

With `O=C1CC2(CCCC2)CC(=O)N1CCCCNCC1COc2ccccc2O1` (stereo not drawn), the “robust z score of cell number” value in assay [1] (siRNA: siRpgrip1l) is -33.9 ± 24; in assay [1] (siRNA: siScr), -33.9 ± 29. In addition, the “robust z score of cilia incidence” value is -10.6 ± 3.8 in assay [2] and -24.9 ± 14 in assay [3].

Turning to `CN1CCc2cccc3c2[C@H]1Cc1ccc(O)c(O)c1-3` [(R)-(-)-Apomorphine hydrochloride], the entries for the “robust z score of cell number” value in assay [1] (siRNA: siRpgrip1l) and in assay [1] (siRNA: siScr) were -51.3 ± 43 and -45.7 ± 0.71, respectively. In addition, the “robust z score of cilia incidence” value in assay [2] was -59 ± 11; in assay [3] it was -37.7 ± 4.

Take `CN(C)CCCCSC(=N)N`: the “robust z score of cell number” value is -4.36 ± 4.6 in assay [1] (siRNA: siRpgrip1l) and -1.34 ± 0.54 in assay [1] (siRNA: siScr). Moreover, the “robust z score of cilia incidence” value is 0.878 ± 1.2 in assay [2] and -8 ± 6.4 in assay [3].

With `O=C(Cc1ccccc1)Nc1nc2ccc(Cl)cc2c2nc(-c3ccco3)nn12`, the entries for the “robust z score of cell number” value in assay [1] (siRNA: siRpgrip1l) and in assay [1] (siRNA: siScr) were -14.5 ± 8.5 and -5.44 ± 1.3, respectively. Moreover, the results for the “robust z score of cilia incidence” value in assay [2] and in assay [3] were 4.01 ± 0.42 and -7.21 ± 0.59, respectively.

For the compound `Fc1ccc(Cl)cc1-c1nc(Nc2ccncc2)c2nccnc2n1`, the entries for the “robust z score of cell number” value in assay [1] (siRNA: siRpgrip1l) and in assay [1] (siRNA: siScr) were -9.89 ± 11 and -3.51 ± 1.6, respectively. In addition, the “robust z score of cilia incidence” value in assay [2] is -3.56 ± 7.4; in assay [3] it was -6.15 ± 4.

Consider `Clc1cccc(Nc2nnc(-c3ccccc3)c3ccccc23)c1`, for which the results for the “robust z score of cell number” value in assay [1] (siRNA: siRpgrip1l) and in assay [1] (siRNA: siScr) were -119 ± 97 and -81 ± 44, respectively. For the same compound, the “robust z score of cilia incidence” value in assay [2] was -15 ± 7.3; in assay [3], -18.9 ± 4.7.

With `COc1ccc(-c2nc(C(=O)N3CCN(C)CC3)sc2-c2ccc(OC)cc2)cc1`, the “robust z score of cell number” value in assay [1] (siRNA: siRpgrip1l) is -134 ± 130; in assay [1] (siRNA: siScr), -36.2 ± 6.5. Besides, the entries for the “robust z score of cilia incidence” value in assay [2] and in assay [3] were -37.2 ± 10 and -503 ± 310, respectively.

`CCC(CC)(CC(=O)Nc1cccc(/C=C/c2nc(C3CCC3)cs2)c1)C(=O)O` [Cinalukast]: the “robust z score of cell number” value in assay [1] (siRNA: siRpgrip1l) is -19.4 ± 12; in assay [1] (siRNA: siScr), -24.3 ± 13. The “robust z score of cilia incidence” value is 3.6 ± 6.8 in assay [2] and -12.4 ± 16 in assay [3].

On to `O=C(O)C=C1CCCc2ccccc2C1O` (stereo not drawn), for which the “robust z score of cell number” value is -2.04 ± 1.6 in assay [1] (siRNA: siRpgrip1l) and 0.124 ± 4.6 in assay [1] (siRNA: siScr). The results for the “robust z score of cilia incidence” value in assay [2] and in assay [3] were -0.226 ± 2.4 and -5.58 ± 4.3, respectively.

Turning to `CC(=O)N(O)[C@@H]1c2cc(C#N)ccc2OC(C)(C)[C@H]1O`, the “robust z score of cell number” value was -17.5 ± 18 in assay [1] (siRNA: siRpgrip1l) and -0.74 ± 1.9 in assay [1] (siRNA: siScr). Further, the “robust z score of cilia incidence” value in assay [2] is -3.35 ± 5; in assay [3], -4.64 ± 0.28.

On to `O=C(NCCN1CCCCC1)c1ccc(I)cc1` [N-[2-(Piperidinylamino)ethyl]-4-iodobenzamide], for which the “robust z score of cell number” value in assay [1] (siRNA: siRpgrip1l) was -1.02 ± 1.7; in assay [1] (siRNA: siScr) it was -3.32 ± 0.15. Also, the “robust z score of cilia incidence” value in assay [2] is -5.78 ± 2.2; in assay [3], -9.83 ± 0.85.

In the case of `COc1cc(OC)c(NC(=O)Nc2cc(C)on2)cc1Cl`, the figures for the “robust z score of cell number” value in assay [1] (siRNA: siRpgrip1l) and in assay [1] (siRNA: siScr) were -7.55 ± 1.7 and -30.1 ± 22, respectively. In addition, the “robust z score of cilia incidence” value in assay [2] is -6.85 ± 0.17; in assay [3], -16.1 ± 0.6.

Regarding `NC(C(=O)O)c1cc(O)cc(O)c1` (racemic), the “robust z score of cell number” value stood at 3.54 ± 0.5 in assay [1] (siRNA: siRpgrip1l) and 1.22 ± 4.5 in assay [1] (siRNA: siScr). In addition, the “robust z score of cilia incidence” value in assay [2] was 1.69 ± 2.7; in assay [3], -8.08 ± 5.6.

Values taken from the supplement of paper PMC12009310.
